Results are given in words; binding and its absence hold for the method and conditions named. In cells and extracts the contact can be indirect. These calls come from enrichment with a bait or labelling near it, and not all partners need be listed.

B1: LpxB (enzyme, UniProt P10441 1-382)
chain: MTEQRPLTIALVAGETSGDILGAGLIRALKEHVPNARFVGVAGPRMQAEGCEAWYEMEELAVMGIVEVLGRLRRLLHIRADLTKRFGELKPDVFVGIDAPDFNITLEGNLKKQGIKTIHYVSPSVWAWRQKRVFKIGRATDLVLAFLPFEKAFYDKYNVPCRFIGHTMADAMPLDPDKNAARDVLGIPHDAHCLALLPGSRGAEVEMLSADFLKTAQLLRQTYPDLEIVVPLVNAKRREQFERIKAEVAPDLSVHLLDGMGREAMVASDAALLASGTAALECMLAKCPMVVGYRMKPFTFWLAKRLVKTDYVSLPNLLAGRELVKELLQEECEPQKLAAALLPLLANGKTSHAMHDTFRELHQQIRCNADEQAAQAVLELAQ
B2: SucB (enzyme, UniProt P0AFG6 1-405)
chain: MSSVDILVPDLPESVADATVATWHKKPGDAVVRDEVLVEIETDKVVLEVPASADGILDAVLEDEGTTVTSRQILGRLREGNSAGKETSAKSEEKASTPAQRQQASLEEQNNDALSPAIRRLLAEHNLDASAIKGTGVGGRLTREDVEKHLAKAPAKESAPAAAAPAAQPALAARSEKRVPMTRLRKRVAERLLEAKNSTAMLTTFNEVNMKPIMDLRKQYGEAFEKRHGIRLGFMSFYVKAVVEALKRYPEVNASIDGDDVVYHNYFDVSMAVSTPRGLVTPVLRDVDTLGMADIEKKIKELAVKGRDGKLTVEDLTGGNFTITNGGVFGSLMSTPIINPPQSAILGMHAIKDRPMAVNGQVEILPMMYLALSYDHRLIDGRESVGFLVTIKELLEDPTRLLLDV
B3: FadB (enzyme, UniProt P21177 1-729)
chain: MLYKGDTLYLDWLEDGIAELVFDAPGSVNKLDTATVASLGEAIGVLEQQSDLKGLLLRSNKAAFIVGADITEFLSLFLVPEEQLSQWLHFANSVFNRLEDLPVPTIAAVNGYALGGGCECVLATDYRLATPDLRIGLPETKLGIMPGFGGSVRMPRMLGADSALEIIAAGKDVGADQALKIGLVDGVVKAEKLVEGAKAVLRQAINGDLDWKAKRQPKLEPLKLSKIEATMSFTIAKGMVAQTAGKHYPAPITAVKTIEAAARFGREEALNLENKSFVPLAHTNEARALVGIFLNDQYVKGKAKKLTKDVETPKQAAVLGAGIMGGGIAYQSAWKGVPVVMKDINDKSLTLGMTEAAKLLNKQLERGKIDGLKLAGVISTIHPTLDYAGFDRVDIVVEAVVENPKVKKAVLAETEQKVRQDTVLASNTSTIPISELANALERPENFCGMHFFNPVHRMPLVEIIRGEKSSDETIAKVVAWASKMGKTPIVVNDCPGFFVNRVLFPYFAGFSQLLRDGADFRKIDKVMEKQFGWPMGPAYLLDVVGIDTAHHAQAVMAAGFPQRMQKDYRDAIDALFDANRFGQKNGLGFWRYKEDSKGKPKKEEDAAVEDLLAEVSQPKRDFSEEEIIARMMIPMVNEVVRCLEEGIIATPAEADMALVYGLGFPPFHGGAFRWLDTLGSAKYLDMAQQYQHLGPLYEVPEGLRNKARHNEPYYPPVEPARPVGDLKTA
B4: PrlC (enzyme, UniProt P27298 1-680)
chain: MTNPLLTPFELPPFSKILPEHVVPAVTKALNDCRENVERVVAQGAPYTWENLCQPLAEVDDVLGRIFSPVSHLNSVKNSPELREAYEQTLPLLSEYSTWVGQHEGLYKAYRDLRDGDHYATLNTAQKKAVDNALRDFELSGIGLPKEKQQRYGEIATRLSELGNQYSNNVLDATMGWTKLVTDEAELAGMPESALAAAKAQAEAKELEGYLLTLDIPSYLPVMTYCDNQALREEMYRAYSTRASDQGPNAGKWDNSKVMEEILALRHELAQLLGFENYAFKSLATKMAENPQQVLDFLTDLAKRARPQGEKELAQLRAFAKAEFGVDELQPWDIAYYSEKQKQHLYSISDEQLRPYFPENKAVNGLFEVVKRIYGITAKERKDVDVWHPDVRFFELYDENNELRGSFYLDLYARENKRGGAWMDDCVGQMRKADGSLQKPVAYLTCNFNRPVNGKPALFTHDEVITLFHEFGHGLHHMLTRIETAGVSGISGVPWDAVELPSQFMENWCWEPEALAFISGHYETGEPLPKELLDKMLAAKNYQAALFILRQLEFGLFDFRLHAEFRPDQGAKILETLAEIKKLVAVVPSPSWGRFPHAFSHIFAGGYAAGYYSYLWADVLAADAFSRFEEEGIFNRETGQSFLDNILSRGGSEEPMDLFKRFRGREPQLDAMLEHYGIKG

For this test, the target named is T1, Strep-LpxC (E. coli) (UniProt P0A725).
T1 sequence: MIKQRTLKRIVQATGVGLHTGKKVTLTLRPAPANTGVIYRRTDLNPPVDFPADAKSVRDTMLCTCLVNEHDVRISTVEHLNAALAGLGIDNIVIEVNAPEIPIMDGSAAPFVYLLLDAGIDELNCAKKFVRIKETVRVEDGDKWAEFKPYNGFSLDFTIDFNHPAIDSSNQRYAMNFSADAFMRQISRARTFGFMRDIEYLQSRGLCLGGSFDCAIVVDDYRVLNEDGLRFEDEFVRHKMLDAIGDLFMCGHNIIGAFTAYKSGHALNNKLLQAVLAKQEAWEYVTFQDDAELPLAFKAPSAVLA
As to the kind of experiment: affinity purification with mass spectrometry; Strep-LpxC overproduced in E. coli BL21 Δarg/Δlys grown at 30°C (slow), 37°C (medium) or 40°C (fast growth); Strep-tactin affinity purification from the lysate; co-purified proteins identified by LC-MS/MS with a super-SILAC standard; enriched >2-fold over the Strep-tag empty-vector control, p<0.05, or 'LpxC only'.
As to B1, the binding entry is recorded as “binds”.

For the molecule B2, the binding result is “binds”.

Consider B3, for which the binding entry is given as “binds”.

For B4, the binding entry is “binds”.

The record behind these values is PMC6339880.
